Results of single-concentration screens

Amino acid sequences for entries named in this document (tags omitted).
UniProt P9WNZ1, whole entry: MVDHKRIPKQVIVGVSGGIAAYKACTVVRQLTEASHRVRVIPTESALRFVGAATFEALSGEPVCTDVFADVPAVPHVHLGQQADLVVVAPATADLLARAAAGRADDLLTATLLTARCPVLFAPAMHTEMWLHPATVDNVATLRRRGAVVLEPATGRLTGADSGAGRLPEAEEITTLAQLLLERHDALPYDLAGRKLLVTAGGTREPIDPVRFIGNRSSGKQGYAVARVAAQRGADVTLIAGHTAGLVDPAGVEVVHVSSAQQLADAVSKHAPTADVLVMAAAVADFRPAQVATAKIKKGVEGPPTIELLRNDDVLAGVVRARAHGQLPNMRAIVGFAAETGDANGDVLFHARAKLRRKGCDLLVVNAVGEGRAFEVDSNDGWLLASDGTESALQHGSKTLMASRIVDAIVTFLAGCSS

From ChEMBL document CHEMBL3988442, “University of Dundee, Small-Polar-MMV Screening Library” (2021).

Leishmania in macrophages: 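Cell assay of Leishmania donovani living inside macrophages; the read-out is not stated. Concentration: 30 µM. Higher reads as stronger inhibition (inferred: compounds with an IC50 in retests scored well above the rest). Size under these conditions: about 69,000 compounds, about 1,000 of them at 50% or above in at least one test.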
CoaBC: 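Enzyme assay of CoaBC with a phosphate dye (Biomol Green) read at 650 nm. Target: Coenzyme A biosynthesis protein CoaBC, Mycobacterium tuberculosis (UniProt P9WNZ1). Tested at 30 µM. Higher reads as stronger inhibition, judged from the few compounds that gave an IC50. Most strong results did not repeat in a second test. About 67,000 compounds were tested under these conditions; 0.06% (about 40) showed 50% or more at least once.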

Each number is a percent effect as filed.
How 0% and 100% were set is not recorded. Most values in the screen are low, and negative values occur.
Compounds were drawn at random from those tested, without regard to their results.
Two or more numbers in one place are separate tests of the same structure; such repeats can differ widely.
A dash means the value is not listed here; it may have been measured.

structure | Leishmania in macrophages | CoaBC
Cc1noc(Cl)c1CCC(=O)N1CCC(Nc2cccnn2)CC1 | 1.402% | 4.47%
CCN1C(=O)CCCC12CCCN(C(=O)c1ccncc1F)C2.O=C(O)C(F)(F)F (configuration not stated) | 39.86% | -
COc1cc(C)ccc1OCCC(=O)N1CCC(N2CC=CC2)C1 (configuration not stated) | 0.04313% | 10.51%
CC(C)c1cccc(N2CCCC3(CCC(=O)N(C4CC4)C3)C2)n1 (configuration not stated) | -3.097% | 10.08%
[H][C@@]12CCN(C(C)=O)C[C@]1([H])CCN(Cc1ccc3c(c1)OCO3)C(=O)C2 | -102.4% | -
CC1(C)CC(CN2CCC3(CCC(=O)N(CCO)C3)CC2)CCO1 (configuration not stated) | 0.3251% | 1.35%
CS(=O)(=O)N[C@@H]1CN(C(=O)c2ccccn2)[C@@H]2CCCO[C@@H]21 | - | 9.512%
Cc1cc(C(=O)NC2=NCCS2)c(C)n1-c1ccccn1 | 43.14% | 1.574%
CCN(CC(=O)NC)C(=O)Cc1csc(C(C)C)n1 | 8.755% | -6.407%
CC(C(=O)NCc1cccc(N2CCCC2=O)c1)S(C)(=O)=O (configuration not stated) | -32.88% | 5.832%
CCN(CC(=O)NC)C(=O)c1sc(Cc2ccccc2)nc1C | 5.897% | -2.822%
CNc1cncc(C2CCCN2C(=O)CCn2ccnc2C(C)C)n1 (configuration not stated) | 17.49% | 4.067%
Cn1ccc2cc(C(=O)NC3CCS(=O)(=O)C3)ccc21 (configuration not stated) | 21.94% | 0.4603%
[H][C@@]12COC[C@]1(c1nc(C)no1)CN(C(=O)COCC)C2 | 46.85% | -
C[C@@H]1C[C@H]2CN(C(=O)c3ccncn3)C[C@H]2O1 | - | 1.754%
O=S(=O)(NCc1ccccc1)N(Cc1ccccn1)CC1CCCO1 (configuration not stated) | 25.16% | 9.307%
COCC(=O)N1C[C@H]2CNC[C@@]2(C(=O)NCc2snnc2C)C1 | - | -10.45%
O=C(Cc1ccncc1)N1CCC2(CC1)CC(c1ccccc1)CO2.O=C(O)C(F)(F)F (configuration not stated) | 68.9% | -
CS(=O)(=O)N1CCCC12CCCN(S(=O)(=O)c1ccc(F)c(F)c1)C2 (configuration not stated) | 9.059% | 1.975%
O=C(CN1CCOC(Cn2cncn2)C1)NCc1cccs1 (configuration not stated) | -12.33% | 2.864%
NC(=O)NCC1CCCCN1C(=O)c1ccc(Br)s1 (configuration not stated) | 10.31% | -8.961%
CN1CCCN(S(=O)(=O)c2cccc(C(=O)N3CCCCCC3)c2)CC1 | -24.4% | -13.84%
CCC(=O)N1CCc2[nH]cnc2C12CCN(CC1CCOC1)CC2 (configuration not stated) | -6.517% | 24.09% & 5.291%
[H][C@@]12CCN(Cc3scnc3C)C[C@]1(c1nnc(C)o1)CCO2 | 1.643% | -
O=C(NCCC(O)c1cccs1)c1ccc(Br)o1 (configuration not stated) | 2.43% | 0.4202%
COc1ccccc1-c1ncc(CN2C[C@H](O)[C@@H](N3CCCC3)C2)s1 | 4.457% | 3.23%
O=C(C1COc2ccccc2O1)N1Cc2cnn(CCO)c2C1 (configuration not stated) | 7.657% | -11.57%
Cl.[H][C@@]12CCN(C3CCCC3)C[C@]1([H])[C@@H](c1ccsc1)CN2C(=O)C(C)(C)C | -7.492% | -
COc1ccc(Cc2nc3c([nH]2)CC(C)(C)CNC3=O)cc1OC | 21.57% | -2.427%
c1ccc(-c2nnc(N3CCCC4(CCOC4)C3)s2)cc1 (configuration not stated) | 0.8438% | 6.11%
Cc1nc(C(=O)N2CCC(c3cc(CCO)n(C)n3)C2)co1 (configuration not stated) | -3.569% | 3.641%
CC(NC(=O)NCc1cccc(CN2CCCC2)c1)c1nccs1 (configuration not stated) | 10.58% | 0.4969%
CN(C)C(=O)C1CN(Cc2nccs2)CCN(S(C)(=O)=O)C1 (configuration not stated) | 7.471% | -1.961%
c1csc(-c2nc(CN3CCOC(Cn4cncn4)C3)co2)c1 (configuration not stated) | -8.176% | 2.728%
CC(C)=CCN1C[C@@H]2CN(C(=O)c3ccc(CO)cc3)C[C@]2(C(=O)O)C1 | - | -21.41%
CN(C)C(=O)N1CCC2(CC1)CN(CC1CC1)CC21CCNC1=O.O=C(O)C(F)(F)F (configuration not stated) | -4.251% | -
COC(=O)CC(c1ccc(O)c(Cl)c1)c1oc(C)cc(=O)c1O (configuration not stated) | 16.08% & -9.151% | 0.2545%
Nc1nc2nc(C3CCCN(C(=O)c4cnccn4)C3)ccc2s1 (configuration not stated) | 1.657% | 2.696%
CC(C)NC1CCc2c(ccc(=O)n2CCN(C)C)C1 (configuration not stated) | - | -8.75%
O=C1CCC(C(=O)N2CCC(Cn3cc(C4CCCC4)nn3)CC2)=NN1 | 30.78% | -1.351%
CNC(=O)CN1CCC(c2nn(C)c(=O)n2-c2ccccc2)CC1 | -2.584% | -4.202%
O=c1ncn(-c2ccc(F)cc2)c2ncccc12 | 14.88% | 0.2237%
COc1cc(CNc2cc(N3CCCC3CO)ncn2)ccn1 (configuration not stated) | -2.385% | 1.136%
CSCc1nc(CNC(=O)C2CCCN(CC(N)=O)C2)cs1 (configuration not stated) | 0.6848% | -6.818%
CCc1ccc(CNc2cc(-c3ccoc3C)nn2CCO)o1 | -8.006% | 0.2457%
CC(C)c1ccc(-c2nonc2N)cc1 | 15.27% | 0.3681%
CCS(=O)(=O)CCN1CCN(C2CCC(C(C)C)CC2)CC1 (configuration not stated) | -6.006% | 4.911%
c1csc(-c2noc(CN3CCCC3Cn3cccn3)n2)c1 (configuration not stated) | -30.87% | -1.513%
O=C(O)c1cnc(OCC2CC2)c(Br)c1 | 4.629% | 1.611%
Cc1noc(C)c1CN1CCC2(CC1)C(c1cnn(C)c1)CC(=O)N2C.O=C(O)C(F)(F)F (configuration not stated) | 22.18% | -

Once more, the final 5:

- CC(C)c1ccc(-c2nonc2N)cc1 | Leishmania in macrophages: 15.27%; CoaBC: 0.3681%
- CCS(=O)(=O)CCN1CCN(C2CCC(C(C)C)CC2)CC1 (configuration not stated) | Leishmania in macrophages: -6.006%; CoaBC: 4.911%
- c1csc(-c2noc(CN3CCCC3Cn3cccn3)n2)c1 (configuration not stated) | Leishmania in macrophages: -30.87%; CoaBC: -1.513%
- O=C(O)c1cnc(OCC2CC2)c(Br)c1 | Leishmania in macrophages: 4.629%; CoaBC: 1.611%
- Cc1noc(C)c1CN1CCC2(CC1)C(c1cnn(C)c1)CC(=O)N2C.O=C(O)C(F)(F)F (configuration not stated) | Leishmania in macrophages: 22.18%